{
  "source": "patent US20100093618A1",
  "key": {"[1]": {"target": "FLAG-Tat (p3XFLAG-CMV-Tat, wild type) (HIV-1) (UniProt P04608)", "assay": "GST-IκB-α pulldown from extracts of transfected HeLa cells, anti-FLAG Western blot"}, "GST-Tat (HIV-1) [2]": {"target": "GST-Tat (HIV-1) (UniProt P04608)", "assay": "summary of the GST-Tat pulldown results (FIG. 9A)"}, "GST-Tat (HIV-1) [3]": {"target": "GST-Tat (HIV-1) (UniProt P04608)", "assay": "GST-Tat pulldown of [35S]-labeled in vitro translated protein, autoradiography"}, "GST-Tat (HIV-1) [4]": {"target": "GST-Tat (HIV-1) (UniProt P04608)", "assay": "GST-Tat pulldown from HeLa cell extracts, anti-IκB-α (C-15) Western blot"}},
  "note": "Results are given in words; binding and its absence hold for the method and conditions named. Binding seen in cells or lysates may run through a third protein. Some results given as binding are weak or reduced against the parent protein; the word gives no strength.",
  "data": [
    {"substance": "GST-IκB-α (from UniProt P25963 1-317)", "values": [
      {"measurement": "binding", "setting": "[1]", "value": "binds"}
    ]},
    {"substance": "[35S]methionine-labeled IκB-α 1-269 (in vitro translated) (from UniProt P25963 1-269)", "values": [
      {"measurement": "binding", "setting": "GST-Tat (HIV-1) [2]", "value": "binds"},
      {"measurement": "binding", "setting": "GST-Tat (HIV-1) [3]", "value": "binds"}
    ]},
    {"substance": "[35S]methionine-labeled IκB-α 1-317 (in vitro translated) (from UniProt P25963 1-317)", "values": [
      {"measurement": "binding", "setting": "GST-Tat (HIV-1) [3]", "value": "binds"}
    ]},
    {"substance": "[35S]methionine-labeled IκB-α 72-287 (in vitro translated) (from UniProt P25963 72-287)", "values": [
      {"measurement": "binding", "setting": "GST-Tat (HIV-1) [3]", "value": "binds"}
    ]},
    {"substance": "[35S]methionine-labeled IκB-α 72-287 L(272,274,277)A (in vitro translated) (from UniProt P25963 72-287)", "values": [
      {"measurement": "binding", "setting": "GST-Tat (HIV-1) [3]", "value": "binds"}
    ]},
    {"substance": "[35S]methionine-labeled IκB-α 120-317 (in vitro translated) (from UniProt P25963 120-317)", "values": [
      {"measurement": "binding", "setting": "GST-Tat (HIV-1) [2]", "value": "binds"},
      {"measurement": "binding", "setting": "GST-Tat (HIV-1) [3]", "value": "binds"}
    ]},
    {"substance": "[35S]methionine-labeled IκB-α 243-317 (in vitro translated) (from UniProt P25963 243-317)", "values": [
      {"measurement": "binding", "setting": "GST-Tat (HIV-1) [3]", "value": "binds"}
    ]},
    {"substance": "[35S]methionine-labeled IκB-α N/C NES (in vitro translated) (from UniProt P25963 1-317)", "values": [
      {"measurement": "binding", "setting": "GST-Tat (HIV-1) [3]", "value": "binds"}
    ]},
    {"substance": "endogenous IκB-α (HeLa cell extracts) (from UniProt P25963 1-317)", "values": [
      {"measurement": "binding", "setting": "GST-Tat (HIV-1) [4]", "value": "binds"}
    ]}
  ]
}
